# The list shows a part of the results.
# By UniProt entry, the sequences of proteins in these tests, tags left out.
# UniProt Q0JBA9, entry or part of it: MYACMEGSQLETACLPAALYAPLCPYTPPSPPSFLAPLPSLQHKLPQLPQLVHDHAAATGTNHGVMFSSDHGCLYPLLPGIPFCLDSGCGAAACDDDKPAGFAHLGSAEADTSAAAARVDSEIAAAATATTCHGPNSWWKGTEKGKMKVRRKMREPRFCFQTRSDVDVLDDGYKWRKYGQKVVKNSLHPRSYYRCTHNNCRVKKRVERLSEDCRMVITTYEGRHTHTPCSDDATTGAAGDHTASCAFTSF
# Molecular target: OsWRKY34 (Oryza sativa, UniProt Q0JBA9 1-250)
# Experiment: protein-binding microarray (RPBM); PBS, 2% BSA, 51.3 ng/ul salmon testes DNA, 50 uM zinc acetate, 200 nM TF, 25 C, 1 h; high values mean tight binding
# Conditions: protein: recombinant; tags: N-terminal polyhistidine and DsRed monomer fusion (pET32a); label: CyDye5-dUTP incorporated in the synthesized complementary strand; 3' TTTTT single-stranded linker to array surface; dsDNA, one strand shown
# Method in brief: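 Transcription factors, each fused N-terminally to a polyhistidine tag and DsRed, were expressed in E. coli BL21-CodonPlus and purified on Ni–NTA. A custom Agilent array was made double-stranded by primer extension with Cy5-dUTP and blocked with 2% BSA. It was incubated with 200 nM protein in PBS, 2% BSA, salmon testes DNA and 50 µM zinc acetate at 25 °C for 1 h, then washed. The binding signal is per-feature fluorescence intensity (arbitrary units) read on an Axon 4000B scanner.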
row,Sequence,binding signal
1,TTGTATAAGGGCACGGTCTCCAAAAAACAACTTTGACCATCGGAGTCACCTAGTGCAG,8030 fluorescence intensity (a.u.)
2,CTCCTTTGTTTGCTCTGACCTCCCAATTCACAGCTGGGTCCGGAGTCACCTAGTGCAG,10100 fluorescence intensity (a.u.)
3,AATGTATGACGCCGTTGACTTTTTAACAAATATTTGACATCGGAGTCACCTAGTGCAG,20300 fluorescence intensity (a.u.)
4,TTCCAGTCGTCGCCTAAATTAGCGTATCAGTTCCAGTTGTCGGAGTCACCTAGTGCAG,8200 fluorescence intensity (a.u.)
5,GTCAAGCTCGTCCGTCAATTGCATCTTTCACCAAGAAAACCGGAGTCACCTAGTGCAG,9030 fluorescence intensity (a.u.)
6,ATTTATCCCTGCCTCCAAAATCGTCTCATTTCTAGTATTTCGGAGTCACCTAGTGCAG,8610 fluorescence intensity (a.u.)
7,TCCTCATGCCTCTTTTTCCTCCTCCTTCCTTCTCTCATTCCGGAGTCACCTAGTGCAG,10200 fluorescence intensity (a.u.)
8,CGCGCGCAATTGCTTTCCGTGTCCCGCGCCCCGCTAACTCCGGAGTCACCTAGTGCAG,8280 fluorescence intensity (a.u.)
9,ATGATGTATGGTTTTTGTGCTTGTTGAATTCGTTTGAGAACGGAGTCACCTAGTGCAG,8480 fluorescence intensity (a.u.)
10,TGCTCAAACATTTTTATTGCCTTATTAACATTTATTTCTTCGGAGTCACCTAGTGCAG,9250 fluorescence intensity (a.u.)
11,GGGAGGGAGCCAGAGCGGCGGGCGTGGGGTTGGAGGAGGGCGGAGTCACCTAGTGCAG,9900 fluorescence intensity (a.u.)
12,TTAGCTTATCAGTACACCTAACCAACTGTTTCACCATGCACGGAGTCACCTAGTGCAG,8120 fluorescence intensity (a.u.)
13,AACGCTGCCTACGATACATGCCCTCACATTATCTTCCTATCGGAGTCACCTAGTGCAG,11200 fluorescence intensity (a.u.)
14,CCATCCAACTTCAGTTGTAACTGTCGTGTTTCCTCTGATTCGGAGTCACCTAGTGCAG,8270 fluorescence intensity (a.u.)
15,TTTTTTTCTGAAAACAGAAGAGAGTGTTTTGTGTTTTTTACGGAGTCACCTAGTGCAG,8030 fluorescence intensity (a.u.)
16,TCGAAATGTTTGACACCGTTGACTTTTTAGCACATGTTTACGGAGTCACCTAGTGCAG,19000 fluorescence intensity (a.u.)
17,CTTCTCAGCAATGAGGTTTTTGTTATAATTGTTTTTGCTACGGAGTCACCTAGTGCAG,8590 fluorescence intensity (a.u.)
18,CCGCGCCCGCCTCGCCGACTTTGGTCTCTCCCGCATCAATCGGAGTCACCTAGTGCAG,10400 fluorescence intensity (a.u.)
19,GGGGCTCATTTAGTCATTTACACGAGTGGCTGTTCAATTCCGGAGTCACCTAGTGCAG,9700 fluorescence intensity (a.u.)
20,TTGCTGCCACTCTGCCATAAGCTTCCATCCTATCAAGCACCGGAGTCACCTAGTGCAG,8260 fluorescence intensity (a.u.)
21,CTGTAATTTTCTTTTTCTAATTGATGTGCCACGTAAACGCCGGAGTCACCTAGTGCAG,8210 fluorescence intensity (a.u.)
22,GTTTGGATTATACTGTATTGATCGGCGATCTTTTCGCCGCCGGAGTCACCTAGTGCAG,8760 fluorescence intensity (a.u.)
23,CGGCTAGTATATGTCTGTCTGTGTGTCTGTCGTGCATAATCGGAGTCACCTAGTGCAG,9460 fluorescence intensity (a.u.)
24,TGTGTTGGTTGTAAGAGCGTTTTTTTGGCGATCTCTTCTGCGGAGTCACCTAGTGCAG,8460 fluorescence intensity (a.u.)
25,TATCTGAGCCTGTGGCTCCATTTGTGGGCTGGGTCGAAGACGGAGTCACCTAGTGCAG,8170 fluorescence intensity (a.u.)
26,ATATATATATATATATATATATATATATATAGTGGAATGACGGAGTCACCTAGTGCAG,12300 fluorescence intensity (a.u.)
27,TATCTAAGTTCCTAACTCATCTTCTTCATTTTCCACGCGCCGGAGTCACCTAGTGCAG,9240 fluorescence intensity (a.u.)

row,Sequence,binding signal
1,AGCAAGTGACAGTCAGAACCCTCGAGCGTCATCAATTTCTCGGAGTCACCTAGTGCAG,9360 fluorescence intensity (a.u.)
2,TGTGTTTGTATTCATCGATGCCTATATAAACCGCGCGTTTCGGAGTCACCTAGTGCAG,8710 fluorescence intensity (a.u.)
3,ATTTGAGGCTCATTTGTCTCCGGCCCGGCCCACTTCCCTTCGGAGTCACCTAGTGCAG,9220 fluorescence intensity (a.u.)
4,TAACTGTGATGGTTGCTTGCTTGTTGTTTGGTCATGGTGACGGAGTCACCTAGTGCAG,12300 fluorescence intensity (a.u.)
5,ATGTTTTTCTTTTCTTTCTTCTTTTTTTTGTTTTTGACCTCGGAGTCACCTAGTGCAG,11900 fluorescence intensity (a.u.)
6,TTCAAAATGTTTGACACCATTGACTTTTTAGCATATGTTTCGGAGTCACCTAGTGCAG,10000 fluorescence intensity (a.u.)
7,TATCGTTTATGGATTTAACCGCAGTTTTTCTTGTCTTTATCGGAGTCACCTAGTGCAG,9490 fluorescence intensity (a.u.)
8,TTTTATTTTTCTTGACGCCACACACCTCTCCTCTGTTCTTCGGAGTCACCTAGTGCAG,9520 fluorescence intensity (a.u.)
9,AATGCAACATCTCAGTTTGCCGGGTTTTGTCTGCTCGCGCCGGAGTCACCTAGTGCAG,10600 fluorescence intensity (a.u.)
10,CCTACACACGCAAACTTCTAATTTTTCTGTCACATCGTTTCGGAGTCACCTAGTGCAG,9540 fluorescence intensity (a.u.)
11,TCCTCTTTCGCTACCTCCCGTGCCTAAATGGGCCAAATCTCGGAGTCACCTAGTGCAG,11600 fluorescence intensity (a.u.)
12,CCTTCGGCTCTTCGCCCCTCGCTACCTCCGATTTCCAATGCGGAGTCACCTAGTGCAG,8280 fluorescence intensity (a.u.)
13,TGTTATTCAACTGTTCTTGTACCACCATATGCTACTTCTTCGGAGTCACCTAGTGCAG,9360 fluorescence intensity (a.u.)
14,TCATGGATATGCCTCTTACAGTGGACCTTACTAGGATTCTCGGAGTCACCTAGTGCAG,10800 fluorescence intensity (a.u.)
15,TGATCGCCGGTATTGAGCAAGGATTGGGGTTTGGGGTAAGCGGAGTCACCTAGTGCAG,12000 fluorescence intensity (a.u.)
16,CACTTTGCTTGCTGGTTTTGATTTTTGGATTCCTTCCGTTCGGAGTCACCTAGTGCAG,9500 fluorescence intensity (a.u.)
17,CGTTCATTCCGCATCCAATGGCAGCACTGGTTCCTAGCTTCGGAGTCACCTAGTGCAG,8110 fluorescence intensity (a.u.)
18,CTTTTTTTTTCTTTTTCTCTTTTACGGTGTTGGGAAGGTTCGGAGTCACCTAGTGCAG,10400 fluorescence intensity (a.u.)
19,TGTCACTCCCGCCTCGGTAACCGGCGCGCTACCCTCGCTTCGGAGTCACCTAGTGCAG,10400 fluorescence intensity (a.u.)
20,CCTATCGATCTCTTGTTGTTCTTCATCGTCCTCTATATAGCGGAGTCACCTAGTGCAG,12200 fluorescence intensity (a.u.)
21,TCTGATTATCCTATGCCTGCCGTGTTTAAGTGGTGTGTGTCGGAGTCACCTAGTGCAG,8660 fluorescence intensity (a.u.)
22,ATCGTTTGAAATTCTTATGGATTGAACAATCCTATAAAAGCGGAGTCACCTAGTGCAG,8660 fluorescence intensity (a.u.)
23,TTGCAAACACATGTCACATAGTCTTCCCCACATTGGCTCTCGGAGTCACCTAGTGCAG,9790 fluorescence intensity (a.u.)
24,GAACCGAACGATTCGCTCATCGCTTTTGTCATCATCTAACCGGAGTCACCTAGTGCAG,10900 fluorescence intensity (a.u.)
25,GAGGGGTGGACGGGGCTGGTGATGCTGGTGCTCATGGCGGCGGAGTCACCTAGTGCAG,9300 fluorescence intensity (a.u.)
26,GAGATGGGGAGGGAGGCCGGCCGGGAGAGGGAGAGAGAGGCGGAGTCACCTAGTGCAG,8890 fluorescence intensity (a.u.)
27,AATCCCTCTGCTATAAAATCGCTCTGCTTTACTGCTGTTTCGGAGTCACCTAGTGCAG,11800 fluorescence intensity (a.u.)

# Taken from above:
# AACGCTGCCTACGATACATGCCCTCACATTATCTTCCTATCGGAGTCACCTAGTGCAG – binding signal: 11200 fluorescence intensity (a.u.)
# TTCCAGTCGTCGCCTAAATTAGCGTATCAGTTCCAGTTGTCGGAGTCACCTAGTGCAG – binding signal: 8200 fluorescence intensity (a.u.)

# From paper PMC7819943, “Rice protein-binding microarrays: a tool to detect cis-acting elements near promoter regions in rice”
